From paper PMC12142535 come the findings set out here.

The chains behind the UniProt entries cited, without tags or fusion partners. Residues count along the entry.
UniProt P52480: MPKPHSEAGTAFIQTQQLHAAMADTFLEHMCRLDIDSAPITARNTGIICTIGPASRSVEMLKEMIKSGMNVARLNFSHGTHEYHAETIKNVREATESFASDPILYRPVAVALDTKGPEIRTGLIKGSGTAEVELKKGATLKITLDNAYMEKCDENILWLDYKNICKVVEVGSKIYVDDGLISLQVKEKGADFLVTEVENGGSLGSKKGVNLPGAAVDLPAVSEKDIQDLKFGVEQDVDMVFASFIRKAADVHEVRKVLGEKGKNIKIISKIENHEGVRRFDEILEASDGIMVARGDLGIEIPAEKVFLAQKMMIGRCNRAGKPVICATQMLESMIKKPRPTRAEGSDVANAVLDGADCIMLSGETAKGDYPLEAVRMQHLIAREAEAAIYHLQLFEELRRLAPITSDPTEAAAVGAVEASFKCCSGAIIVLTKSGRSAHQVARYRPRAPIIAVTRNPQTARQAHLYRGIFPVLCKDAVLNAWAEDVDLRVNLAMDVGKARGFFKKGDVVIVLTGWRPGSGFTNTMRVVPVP
UniProt P38647, residues 47-679: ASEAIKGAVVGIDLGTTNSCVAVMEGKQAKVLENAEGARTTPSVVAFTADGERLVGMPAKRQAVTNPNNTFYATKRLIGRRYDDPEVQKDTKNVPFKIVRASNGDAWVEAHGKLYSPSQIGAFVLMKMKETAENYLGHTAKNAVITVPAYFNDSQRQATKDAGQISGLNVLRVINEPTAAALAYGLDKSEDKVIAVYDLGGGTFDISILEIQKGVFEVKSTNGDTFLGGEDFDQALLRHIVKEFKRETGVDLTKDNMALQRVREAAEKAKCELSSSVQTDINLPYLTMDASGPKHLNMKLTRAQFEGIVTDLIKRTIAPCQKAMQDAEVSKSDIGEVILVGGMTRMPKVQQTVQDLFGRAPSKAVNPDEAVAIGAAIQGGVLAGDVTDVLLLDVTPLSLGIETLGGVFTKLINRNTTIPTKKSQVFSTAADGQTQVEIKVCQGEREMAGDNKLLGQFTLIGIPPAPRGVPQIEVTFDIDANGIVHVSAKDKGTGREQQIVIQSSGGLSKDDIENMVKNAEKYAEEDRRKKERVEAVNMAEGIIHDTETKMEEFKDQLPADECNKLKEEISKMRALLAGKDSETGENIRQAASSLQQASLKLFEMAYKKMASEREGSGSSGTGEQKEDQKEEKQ

In assay [1] the target is pyruvate kinase muscle 2 (PKM2), mouse (mouse (endogenous in peritoneal macrophages)) (UniProt P52480). Put plainly: affinity purification with mass spectrometry; WT murine peritoneal macrophages treated with 20 ug/ml oxLDL for 3 h; 1 mg lysate protein with 2 ug anti-PKM2 IgG at 4 C overnight, A/G agarose beads, SDS-PAGE, gel lanes to mass spectrometry; blank gel and control IgG IP as negative controls.

For assay [2] the target is unchanged. The assay is described as above. The source holds these as a separate data set.
Assay [3] shares this target. The assay can be described thus: affinity purification with mass spectrometry; control WT murine peritoneal macrophages without oxLDL treatment; anti-PKM2 IP as in the treated samples, gel lanes to mass spectrometry.

These are yes or no findings as the source states them, for the method shown. In cells and extracts the contact can be indirect. These calls come from enrichment with a bait or labelling near it, and not all partners need be listed. For part of these data: A no says only that the protein was not detected with the bait.

For “GRP75, mouse (from UniProt P38647 47-679)”, in assay [1], the binding result was “binds”.

B1: UQCRC1, a subunit of ETC complex III, mouse (protein, UniProt Q9CZ13 35-480)
chain: TATFAQALQSVPETQVSILDNGLRVASEQSSHATCTVGVWIDAGSRYETEKNNGAGYFLEHLAFKGTKNRPGNALEKEVESIGAHLNAYSTREHTAYLIKALSKDLPKVVELLADIVQNSSLEDSQIEKERDVILREMQENDASMQNVVFDYLHATAFQGTPLAQAVEGPSENVRRLSRTDLTDYLNRHYKAPRMVLAAAGGVEHQQLLDLAQKHLSSVSRVYEEDAVPGLTPCRFTGSEIRHRDDALPLAHVAIAVEGPGWANPDNVTLQVANAIIGHYDCTYGGGVHLSSPLASVAVANKLCQSFQTFNISYSDTGLLGAHFVCDAMSIDDMVFFLQGQWMRLCTSATESEVTRGKNILRNALVSHLDGTTPVCEDIGRSLLTYGRRIPLAEWESRIQEVDAQMLRDICSKYFYDQCPAVAGYGPIEQLPDYNRIRSGMFWLRF
On to B1, for which the binding entry was “binds” in assay [2] and “no binding (only cells without oxLDL treatment)” in assay [3].
